From the supplement of paper PMC12819154, “High-throughput peptide-centric local stability assay extends protein–ligand identification to membrane proteins, tissues and bacteria” (Nature Structural & Molecular Biology, 2025)
The other results are listed elsewhere or left out. Most values lie at the level of the controls, where differences are scatter.

By UniProt entry, the sequences of proteins in these tests, tags left out. Where a name states a change or a piece, a line headed by the entry shows the natural chain unless it says otherwise.
UniProt Q9BVP2: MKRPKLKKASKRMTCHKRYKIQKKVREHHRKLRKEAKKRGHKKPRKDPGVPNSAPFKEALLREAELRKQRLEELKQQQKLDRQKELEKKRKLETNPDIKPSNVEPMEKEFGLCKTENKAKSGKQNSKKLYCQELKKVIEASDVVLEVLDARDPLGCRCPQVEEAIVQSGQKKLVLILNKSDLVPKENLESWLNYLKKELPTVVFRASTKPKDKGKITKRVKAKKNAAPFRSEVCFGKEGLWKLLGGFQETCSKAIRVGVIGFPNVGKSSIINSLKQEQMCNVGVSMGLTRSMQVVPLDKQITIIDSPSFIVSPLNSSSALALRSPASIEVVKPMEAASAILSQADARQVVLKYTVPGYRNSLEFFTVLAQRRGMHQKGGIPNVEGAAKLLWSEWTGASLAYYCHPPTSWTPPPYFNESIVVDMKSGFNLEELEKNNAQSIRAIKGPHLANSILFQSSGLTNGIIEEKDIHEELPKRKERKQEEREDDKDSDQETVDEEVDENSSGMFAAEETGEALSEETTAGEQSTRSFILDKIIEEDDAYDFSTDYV
UniProt Q9GZT4: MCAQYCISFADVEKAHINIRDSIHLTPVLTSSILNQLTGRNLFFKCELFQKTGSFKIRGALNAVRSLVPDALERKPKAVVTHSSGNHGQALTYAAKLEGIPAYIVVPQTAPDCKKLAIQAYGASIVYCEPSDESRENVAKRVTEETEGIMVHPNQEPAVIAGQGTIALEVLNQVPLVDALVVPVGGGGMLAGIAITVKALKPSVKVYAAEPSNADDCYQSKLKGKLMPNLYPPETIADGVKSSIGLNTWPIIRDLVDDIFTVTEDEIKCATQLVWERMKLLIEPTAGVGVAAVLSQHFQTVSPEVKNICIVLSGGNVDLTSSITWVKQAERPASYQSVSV
UniProt Q9BXL8: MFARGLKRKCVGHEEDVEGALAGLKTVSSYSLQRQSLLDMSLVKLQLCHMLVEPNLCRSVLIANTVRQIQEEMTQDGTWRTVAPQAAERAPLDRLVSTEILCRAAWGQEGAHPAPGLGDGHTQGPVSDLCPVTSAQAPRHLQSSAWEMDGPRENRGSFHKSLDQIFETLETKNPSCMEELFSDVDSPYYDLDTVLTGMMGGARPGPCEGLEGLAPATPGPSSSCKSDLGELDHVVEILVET
UniProt Q9BV86: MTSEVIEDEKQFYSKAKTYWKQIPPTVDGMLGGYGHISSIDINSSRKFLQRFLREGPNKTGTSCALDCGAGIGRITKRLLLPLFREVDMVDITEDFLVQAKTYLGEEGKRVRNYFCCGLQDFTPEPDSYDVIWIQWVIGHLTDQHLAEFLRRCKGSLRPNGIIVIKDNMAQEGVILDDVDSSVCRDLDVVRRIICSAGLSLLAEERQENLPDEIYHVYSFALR
UniProt Q9H098: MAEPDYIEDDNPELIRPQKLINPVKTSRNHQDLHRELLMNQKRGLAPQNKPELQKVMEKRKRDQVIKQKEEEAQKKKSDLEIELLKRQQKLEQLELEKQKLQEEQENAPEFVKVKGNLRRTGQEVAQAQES
UniProt Q9BWN1: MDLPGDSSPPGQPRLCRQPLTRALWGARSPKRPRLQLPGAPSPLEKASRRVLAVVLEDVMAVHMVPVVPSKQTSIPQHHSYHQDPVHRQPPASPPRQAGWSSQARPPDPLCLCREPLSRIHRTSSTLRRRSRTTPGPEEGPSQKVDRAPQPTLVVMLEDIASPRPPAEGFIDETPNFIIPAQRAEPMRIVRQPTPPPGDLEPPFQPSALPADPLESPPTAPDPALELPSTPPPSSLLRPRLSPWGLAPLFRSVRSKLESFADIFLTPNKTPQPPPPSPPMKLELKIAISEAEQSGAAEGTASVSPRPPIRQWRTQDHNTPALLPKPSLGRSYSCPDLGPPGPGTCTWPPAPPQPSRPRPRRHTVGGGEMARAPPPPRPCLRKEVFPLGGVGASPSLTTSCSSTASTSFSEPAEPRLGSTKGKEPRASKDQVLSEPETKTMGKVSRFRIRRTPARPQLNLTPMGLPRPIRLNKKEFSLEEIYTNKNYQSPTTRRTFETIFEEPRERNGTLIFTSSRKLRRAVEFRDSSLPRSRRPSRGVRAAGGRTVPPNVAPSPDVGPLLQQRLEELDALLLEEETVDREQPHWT
UniProt Q9H1E3: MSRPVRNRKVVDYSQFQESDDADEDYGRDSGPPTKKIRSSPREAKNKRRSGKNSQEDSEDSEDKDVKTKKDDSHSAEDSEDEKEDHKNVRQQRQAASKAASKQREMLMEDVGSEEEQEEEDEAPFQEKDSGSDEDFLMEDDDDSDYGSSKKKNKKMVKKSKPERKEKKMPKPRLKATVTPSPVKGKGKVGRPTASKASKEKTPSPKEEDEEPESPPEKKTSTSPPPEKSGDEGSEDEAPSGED
UniProt Q9BXW7: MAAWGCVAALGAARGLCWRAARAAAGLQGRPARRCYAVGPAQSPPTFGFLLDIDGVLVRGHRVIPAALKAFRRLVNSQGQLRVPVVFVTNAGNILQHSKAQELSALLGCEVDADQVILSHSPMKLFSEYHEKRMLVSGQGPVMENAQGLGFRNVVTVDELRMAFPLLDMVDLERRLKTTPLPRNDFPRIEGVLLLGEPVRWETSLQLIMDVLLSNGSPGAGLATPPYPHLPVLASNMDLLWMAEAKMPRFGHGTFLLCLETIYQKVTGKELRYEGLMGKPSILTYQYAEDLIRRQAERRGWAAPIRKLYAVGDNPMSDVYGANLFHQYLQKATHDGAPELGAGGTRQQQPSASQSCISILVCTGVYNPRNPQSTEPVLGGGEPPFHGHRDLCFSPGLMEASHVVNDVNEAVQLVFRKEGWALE
UniProt Q9H1A4, whole entry: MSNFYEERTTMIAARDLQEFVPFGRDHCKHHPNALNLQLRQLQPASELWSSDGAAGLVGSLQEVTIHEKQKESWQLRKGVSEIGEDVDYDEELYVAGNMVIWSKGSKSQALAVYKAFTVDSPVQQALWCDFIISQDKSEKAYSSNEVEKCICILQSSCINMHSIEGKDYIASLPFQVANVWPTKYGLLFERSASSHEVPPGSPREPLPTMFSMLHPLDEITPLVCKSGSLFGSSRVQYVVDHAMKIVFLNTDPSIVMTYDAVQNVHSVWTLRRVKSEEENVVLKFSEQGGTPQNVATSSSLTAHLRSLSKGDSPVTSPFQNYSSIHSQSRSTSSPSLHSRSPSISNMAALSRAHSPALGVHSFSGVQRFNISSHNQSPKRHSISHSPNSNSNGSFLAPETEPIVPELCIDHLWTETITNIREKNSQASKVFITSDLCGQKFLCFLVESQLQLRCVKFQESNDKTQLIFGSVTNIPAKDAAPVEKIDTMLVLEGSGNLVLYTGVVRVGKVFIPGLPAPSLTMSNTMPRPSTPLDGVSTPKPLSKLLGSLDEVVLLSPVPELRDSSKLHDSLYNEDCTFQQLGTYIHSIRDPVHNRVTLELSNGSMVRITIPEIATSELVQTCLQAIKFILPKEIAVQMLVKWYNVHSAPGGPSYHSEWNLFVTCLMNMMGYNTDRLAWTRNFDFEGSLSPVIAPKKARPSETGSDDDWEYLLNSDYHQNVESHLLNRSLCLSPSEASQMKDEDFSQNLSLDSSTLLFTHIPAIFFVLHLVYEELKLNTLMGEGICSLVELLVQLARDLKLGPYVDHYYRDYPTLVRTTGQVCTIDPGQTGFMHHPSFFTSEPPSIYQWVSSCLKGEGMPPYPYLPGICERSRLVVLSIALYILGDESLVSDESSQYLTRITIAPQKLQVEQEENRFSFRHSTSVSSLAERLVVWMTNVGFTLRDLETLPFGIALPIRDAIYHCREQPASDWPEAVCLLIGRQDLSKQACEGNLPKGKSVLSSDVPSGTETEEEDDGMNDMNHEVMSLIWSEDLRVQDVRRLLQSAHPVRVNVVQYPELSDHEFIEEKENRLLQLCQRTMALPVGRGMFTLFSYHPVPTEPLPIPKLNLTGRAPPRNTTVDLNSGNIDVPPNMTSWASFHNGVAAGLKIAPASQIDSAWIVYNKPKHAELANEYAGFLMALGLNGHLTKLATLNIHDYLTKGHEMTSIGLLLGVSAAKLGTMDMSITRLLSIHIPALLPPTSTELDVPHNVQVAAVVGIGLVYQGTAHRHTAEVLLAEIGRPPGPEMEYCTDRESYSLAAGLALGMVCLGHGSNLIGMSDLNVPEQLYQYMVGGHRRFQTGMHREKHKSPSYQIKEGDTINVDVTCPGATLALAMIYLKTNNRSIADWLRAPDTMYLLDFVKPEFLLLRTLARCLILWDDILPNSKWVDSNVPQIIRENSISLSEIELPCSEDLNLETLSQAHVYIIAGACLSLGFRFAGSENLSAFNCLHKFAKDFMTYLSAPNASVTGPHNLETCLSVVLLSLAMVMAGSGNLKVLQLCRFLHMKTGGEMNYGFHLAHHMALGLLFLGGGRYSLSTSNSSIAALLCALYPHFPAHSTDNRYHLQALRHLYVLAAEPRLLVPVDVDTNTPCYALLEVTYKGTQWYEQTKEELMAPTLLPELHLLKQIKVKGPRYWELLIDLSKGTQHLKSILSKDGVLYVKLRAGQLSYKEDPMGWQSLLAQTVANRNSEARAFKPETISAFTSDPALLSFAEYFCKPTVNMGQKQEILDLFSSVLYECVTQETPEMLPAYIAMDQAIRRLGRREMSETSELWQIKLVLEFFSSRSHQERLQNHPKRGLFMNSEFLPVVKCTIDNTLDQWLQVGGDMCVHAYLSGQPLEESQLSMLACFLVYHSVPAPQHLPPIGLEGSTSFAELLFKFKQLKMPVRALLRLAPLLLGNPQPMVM
UniProt Q9BZ67: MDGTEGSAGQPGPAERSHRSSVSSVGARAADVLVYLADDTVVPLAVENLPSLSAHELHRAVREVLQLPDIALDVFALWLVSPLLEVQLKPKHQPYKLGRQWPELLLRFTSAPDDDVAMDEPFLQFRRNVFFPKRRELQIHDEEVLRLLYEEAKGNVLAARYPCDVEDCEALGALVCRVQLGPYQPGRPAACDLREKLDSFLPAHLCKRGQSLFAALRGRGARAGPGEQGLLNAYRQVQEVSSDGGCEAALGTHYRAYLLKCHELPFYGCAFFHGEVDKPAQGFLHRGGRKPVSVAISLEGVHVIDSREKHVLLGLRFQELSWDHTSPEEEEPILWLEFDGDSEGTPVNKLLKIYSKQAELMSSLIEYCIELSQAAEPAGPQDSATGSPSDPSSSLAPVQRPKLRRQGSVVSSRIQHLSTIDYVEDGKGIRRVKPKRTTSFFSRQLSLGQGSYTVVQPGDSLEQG
UniProt Q9BVG8: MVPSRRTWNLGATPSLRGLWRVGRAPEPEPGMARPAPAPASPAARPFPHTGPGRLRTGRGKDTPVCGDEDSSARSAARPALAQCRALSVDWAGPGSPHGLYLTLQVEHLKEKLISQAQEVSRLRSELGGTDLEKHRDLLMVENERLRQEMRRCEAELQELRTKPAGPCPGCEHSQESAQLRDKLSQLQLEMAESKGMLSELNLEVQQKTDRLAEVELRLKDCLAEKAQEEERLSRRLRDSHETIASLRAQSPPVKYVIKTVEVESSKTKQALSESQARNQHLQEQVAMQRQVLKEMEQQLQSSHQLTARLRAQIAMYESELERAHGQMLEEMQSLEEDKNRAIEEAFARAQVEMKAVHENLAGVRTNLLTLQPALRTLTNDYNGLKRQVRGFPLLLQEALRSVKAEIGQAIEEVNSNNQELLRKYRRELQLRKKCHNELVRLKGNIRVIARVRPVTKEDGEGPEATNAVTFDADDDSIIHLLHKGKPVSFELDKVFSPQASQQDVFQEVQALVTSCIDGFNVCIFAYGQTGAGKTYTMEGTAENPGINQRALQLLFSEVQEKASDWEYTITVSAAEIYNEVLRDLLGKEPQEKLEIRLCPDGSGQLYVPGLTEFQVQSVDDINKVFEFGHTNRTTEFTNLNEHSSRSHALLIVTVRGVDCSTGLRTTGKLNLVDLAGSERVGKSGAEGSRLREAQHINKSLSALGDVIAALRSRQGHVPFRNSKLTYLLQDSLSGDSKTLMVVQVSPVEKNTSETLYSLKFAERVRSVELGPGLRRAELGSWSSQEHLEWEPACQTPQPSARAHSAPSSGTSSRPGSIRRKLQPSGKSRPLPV
UniProt Q9BXK1: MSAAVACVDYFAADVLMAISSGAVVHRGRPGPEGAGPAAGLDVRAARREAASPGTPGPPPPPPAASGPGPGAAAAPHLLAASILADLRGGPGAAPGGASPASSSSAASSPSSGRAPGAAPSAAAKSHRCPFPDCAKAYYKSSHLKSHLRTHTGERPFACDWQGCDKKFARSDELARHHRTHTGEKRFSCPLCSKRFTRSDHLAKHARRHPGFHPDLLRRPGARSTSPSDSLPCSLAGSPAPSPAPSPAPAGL
UniProt Q9BV20: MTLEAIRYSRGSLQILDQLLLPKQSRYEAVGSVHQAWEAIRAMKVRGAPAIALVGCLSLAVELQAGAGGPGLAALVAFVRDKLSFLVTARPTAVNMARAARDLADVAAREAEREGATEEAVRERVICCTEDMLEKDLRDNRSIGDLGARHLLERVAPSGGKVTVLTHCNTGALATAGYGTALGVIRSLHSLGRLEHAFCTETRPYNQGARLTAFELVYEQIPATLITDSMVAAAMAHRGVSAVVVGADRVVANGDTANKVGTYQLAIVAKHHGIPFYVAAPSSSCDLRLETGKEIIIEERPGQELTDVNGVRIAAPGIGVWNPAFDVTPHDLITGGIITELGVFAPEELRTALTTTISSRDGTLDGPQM

These targets were tested with Cc1nc(Nc2ncc(C(=O)Nc3c(C)cccc3Cl)s2)cc(N2CCN(CCO)CC2)n1 [dasatinib] (assay: log2 fold change of tryptic peptide abundance, ligand vs vehicle (limited proteolysis) (log2 ratio); higher = more trypsin-susceptible (destabilized)). Details: ligand concentration: 5 uM; sample: K562 cleared lysate.
Target “GNL3 (peptide sequence: KLETNPDIKPSNVEPMEK, peptide start residue: 91) (UniProt Q9BVP2)” has a log2 fold change of 0.304.
In the case of “MECR (peptide sequence: LALNCVGGK, peptide start residue: 259) (UniProt Q9BV79)”, the log2 fold change is reported as -0.164.
“WDR11 (peptide sequence: STYDHTRKCTDQLLLLGQTDR, peptide start residue: 992) (UniProt Q9BZH6)” was tested, and the log2 fold change was -0.33.
In the case of “ARHGAP39 (peptide sequence: SHNVDLPESR, peptide start residue: 11) (UniProt Q9C0H5)”, the log2 fold change is reported as 1.04.
Work on “SRXN1 (peptide sequence: GAQGGDYFYSFGGCHR, peptide start residue: 86) (UniProt Q9BYN0)” yielded a log2 fold change of 0.24.
“KIF13A (peptide sequence: VTQWAEER, peptide start residue: 660) (UniProt Q9H1H9)” was tested, and the log2 fold change was 0.633.
Work on “SRR (peptide sequence: SLVPDALER, peptide start residue: 66) (UniProt Q9GZT4)” yielded a log2 fold change of 0.1.
“CDCA4 (peptide sequence: QSLLDMSLVK, peptide start residue: 35) (UniProt Q9BXL8)” gave a log2 fold change of 0.364.
“UniProt Q9H0M0 (peptide sequence: SILEPDTSNSR, peptide start residue: 309)” was tested, and the log2 fold change was 0.471.
With “COMMD5 (peptide sequence: SAVGAATPYLHHPGDSHSGR, peptide start residue: 2) (UniProt Q9GZQ3)” the log2 fold change was -0.107.
With “CSTF2T (peptide sequence: LVYDRETGKPK, peptide start residue: 47) (UniProt Q9H0L4)” the log2 fold change was 0.0674.
Work on “UniProt Q9BV86 (peptide sequence: LLLPLFR, peptide start residue: 79)” yielded a log2 fold change of -0.206.
Target “UPF3B (peptide sequence: NQEDIILFR, peptide start residue: 103) (UniProt Q9BZI7)” has a log2 fold change of -0.657.
Work on “UniProt Q9BYB0 (peptide sequence: GRAGKFLDEER, peptide start residue: 62)” yielded a log2 fold change of 0.169.
For “FAM107B (peptide sequence: NHQDLHR, peptide start residue: 29) (UniProt Q9H098)”, the log2 fold change was -0.465.
In the case of “DUSP23 (peptide sequence: LPAHYQFLLDLGVR, peptide start residue: 24) (UniProt Q9BVJ7)”, the log2 fold change is reported as 0.399.
In the case of “TRMT61B (peptide sequence: KDHHDLAKK, peptide start residue: 281) (UniProt Q9BVS5)”, the log2 fold change is reported as 0.0616.
“UniProt Q9BWW4 (peptide sequence: GKGSAVPSDGQAR, peptide start residue: 5)” showed a log2 fold change of 0.458.
“UniProt Q9H0P0 (peptide sequence: SHGLLVQQALPK, peptide start residue: 156)” gave a log2 fold change of 0.432.
Work on “UniProt Q9BWN1 (peptide sequence: TQDHNTPALLPKPSLGR, peptide start residue: 314)” yielded a log2 fold change of -0.278.
“NUCKS1 (peptide sequence: TPSPKEEDEEPESPPEK, peptide start residue: 202) (UniProt Q9H1E3)” was tested, and the log2 fold change was 0.23.
For “ADI1 (peptide sequence: MFYEEHLHLDDEIR, peptide start residue: 83) (UniProt Q9BV57)”, the log2 fold change was 0.681.
With “WDR12 (peptide sequence: VFNCISYSPLCKR, peptide start residue: 299) (UniProt Q9GZL7)” the log2 fold change was 0.437.
For “UBE2O (peptide sequence: KEDKPEGQSPVK, peptide start residue: 888) (UniProt Q9C0C9)”, the log2 fold change was 0.376.
“UniProt Q9BXW7 (peptide sequence: GWAAPIRK, peptide start residue: 300)” gave a log2 fold change of 0.123.
With “NAT10 (peptide sequence: YCYYNETHK, peptide start residue: 104) (UniProt Q9H0A0)” the log2 fold change was 0.118.
“ANAPC1 (peptide sequence: VQYVVDHAMK, peptide start residue: 236) (UniProt Q9H1A4)” showed a log2 fold change of -0.348.
For “FRMD8 (peptide sequence: VQLGPYQPGRPAACDLR, peptide start residue: 178) (UniProt Q9BZ67)”, the log2 fold change was -0.133.
“PKIB (peptide sequence: TTQDQLEKPQNEEK, peptide start residue: 65) (UniProt Q9C010)” gave a log2 fold change of -0.0107.
Work on “KIFC3 (peptide sequence: AHGQMLEEMQSLEEDKNR, peptide start residue: 324) (UniProt Q9BVG8)” yielded a log2 fold change of 0.62.
Target “MAK16 (peptide sequence: TKTQSFCR, peptide start residue: 23) (UniProt Q9BXY0)” has a log2 fold change of -0.503.
For “DNTTIP1 (peptide sequence: AAAGMVWKPK, peptide start residue: 181) (UniProt Q9H147)”, the log2 fold change was -0.5.
Work on “UniProt Q9BVG4 (peptide sequence: ADSGEEENTKNGGEK, peptide start residue: 179)” yielded a log2 fold change of 0.46.
Target “KLF16 (peptide sequence: FSCPLCSK, peptide start residue: 187) (UniProt Q9BXK1)” has a log2 fold change of -0.199.
Target “MRI1 (peptide sequence: GVSAVVVGADRVVANGDTANK, peptide start residue: 239) (UniProt Q9BV20)” has a log2 fold change of 0.416.
With “UniProt Q9C0F1 (peptide sequence: ISAEAVGVDISGR, peptide start residue: 151)” the log2 fold change was 0.0469.
Target “SHARPIN (peptide sequence: LQLSADPERPGR, peptide start residue: 44) (UniProt Q9H0F6)” has a log2 fold change of 0.396.
Work on “UniProt Q9C0F3 (peptide sequence: VHTGEKPYECTECEK, peptide start residue: 439)” yielded a log2 fold change of 0.1.
